Counter-ions that a name gives are not always drawn. Some results were stated once for a whole list of compounds, not compound by compound.
System: clinical isolates of N. gonorrhoeae
Assay: MIC by micro-broth dilution against N. gonorrhoeae clinical isolates
Type: cell-based, Neisseria gonorrhoeae
Experimental: Minimum Inhibitory Concentrations of GUMBOS against N. gonorrhoeae: Clinical isolates of N. gonorrhoeae and N. gonorrhoeae ATCC 49226 were obtained from Louisiana State University Health Sciences Center New Orleans HIV Outpatient Clinic. Minimum inhibitory concentrations (MICs) of GUMBOS, constituent parent drugs, azithromycin, and unreacted mixtures were determined using micro-broth dilution in 96-well plates. […] Stock solutions were diluted to a known working concentration and 100 μL were added to the first row of the plate. For susceptibility testing of N. gonorrhoeae, media was prepared according to methods reported by Wade and […]. Euro. Microbiol. Soc. Microbiol. […] This liquid medium allowed dense growth of N. gonorrhoeae for use in broth dilution tests. Protein-free liquid media (100 μL) were added to each well and two-fold dilutions were performed. The antibiotic containing wells were inoculated with an equal volume of bacterial inoculum matching a 0.5 McFarland standard. […] The lowest concentration of antibiotic that prevents growth is the MIC.

CCCCCCCCN=c1ccn(CCCCCCCCCCn2ccc(=NCCCCCCCC)cc2)cc1 [Octenidine dihydrochloride, octenidine dihydrochloride]
Concentration required for growth inhibition, fold greater than GUMBOS: 50-80 ×
